Reference: patent US20170121382A1
Results are given in words; binding and its absence hold for the method and conditions named. For some of these results: Binding seen in cells or lysates may run through a third protein. Some results given as binding are weak or reduced against the parent protein; the word gives no strength.

By UniProt entry, the sequences of proteins in these tests, tags left out. Residues count along the entry.
UniProt P70669: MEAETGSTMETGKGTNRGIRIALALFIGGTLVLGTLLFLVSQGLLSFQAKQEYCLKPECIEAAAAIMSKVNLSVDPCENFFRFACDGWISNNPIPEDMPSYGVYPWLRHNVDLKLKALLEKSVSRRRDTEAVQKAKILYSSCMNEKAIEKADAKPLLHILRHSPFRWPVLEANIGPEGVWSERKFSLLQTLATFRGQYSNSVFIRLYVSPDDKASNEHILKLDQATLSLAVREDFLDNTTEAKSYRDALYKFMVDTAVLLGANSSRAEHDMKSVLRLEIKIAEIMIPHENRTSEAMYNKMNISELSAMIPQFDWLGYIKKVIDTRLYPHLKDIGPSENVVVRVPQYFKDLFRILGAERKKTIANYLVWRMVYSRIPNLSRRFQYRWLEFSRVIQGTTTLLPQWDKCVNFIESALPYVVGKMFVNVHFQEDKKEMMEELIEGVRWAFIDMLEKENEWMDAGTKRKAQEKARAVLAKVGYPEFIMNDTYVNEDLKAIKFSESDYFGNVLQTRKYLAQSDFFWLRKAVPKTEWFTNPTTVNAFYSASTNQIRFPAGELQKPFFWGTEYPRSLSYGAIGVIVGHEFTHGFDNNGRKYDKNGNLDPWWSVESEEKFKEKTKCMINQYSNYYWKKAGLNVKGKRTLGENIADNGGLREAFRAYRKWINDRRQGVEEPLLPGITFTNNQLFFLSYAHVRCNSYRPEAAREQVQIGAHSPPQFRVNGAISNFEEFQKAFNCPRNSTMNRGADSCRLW
UniProt P78562, residues 46-749: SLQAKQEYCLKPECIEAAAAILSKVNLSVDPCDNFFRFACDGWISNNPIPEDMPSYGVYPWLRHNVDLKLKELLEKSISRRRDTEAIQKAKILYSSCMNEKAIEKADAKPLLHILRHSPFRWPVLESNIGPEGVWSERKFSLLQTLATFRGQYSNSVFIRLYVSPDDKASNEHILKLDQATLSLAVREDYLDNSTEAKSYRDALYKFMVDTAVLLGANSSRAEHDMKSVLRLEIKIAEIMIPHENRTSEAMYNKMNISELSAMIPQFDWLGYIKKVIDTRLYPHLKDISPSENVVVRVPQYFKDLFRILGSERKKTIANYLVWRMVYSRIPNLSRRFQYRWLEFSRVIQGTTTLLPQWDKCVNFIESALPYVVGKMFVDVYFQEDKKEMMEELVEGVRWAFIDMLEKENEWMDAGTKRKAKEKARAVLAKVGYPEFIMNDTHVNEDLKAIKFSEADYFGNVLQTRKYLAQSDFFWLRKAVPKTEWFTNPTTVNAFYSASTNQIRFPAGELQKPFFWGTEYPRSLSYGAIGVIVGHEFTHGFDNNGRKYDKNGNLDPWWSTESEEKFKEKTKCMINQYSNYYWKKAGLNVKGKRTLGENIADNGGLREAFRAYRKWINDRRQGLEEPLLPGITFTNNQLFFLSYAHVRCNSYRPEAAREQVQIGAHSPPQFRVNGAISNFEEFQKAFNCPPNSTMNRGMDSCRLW

How the values were obtained:
[1] = biological target: T1, cDMP1, cleaved 57 kDa C-terminal fragment of DMP1 (mouse bone extracts) (mouse) (UniProt O55188); test: coIP, anti-PHEX antibody-coated beads, mouse bone extracts, Western blot for DMP1
T1 sequence (highly phosphorylated (as printed, sites not given), looked up): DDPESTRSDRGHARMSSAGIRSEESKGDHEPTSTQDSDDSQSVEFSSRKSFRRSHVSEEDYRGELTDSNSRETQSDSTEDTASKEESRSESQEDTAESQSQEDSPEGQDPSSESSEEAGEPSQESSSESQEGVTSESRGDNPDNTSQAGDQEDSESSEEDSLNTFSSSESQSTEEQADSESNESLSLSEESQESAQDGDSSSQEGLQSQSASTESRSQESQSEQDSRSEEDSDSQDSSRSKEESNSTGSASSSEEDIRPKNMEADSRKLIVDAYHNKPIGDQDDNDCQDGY

[2] = biological target: T1, cDMP1, cleaved 57 kDa C-terminal fragment of DMP1 (mouse bone extracts) (mouse); test: coIP, anti-PHEX antibody-coated magnetic beads, WT and DMP1ko/cDMP1Tg mouse bone extracts, Western blot with Ab to the C-terminus region of DMP1
[3] = biological target: T2, human recombinant DMP1 (human) (UniProt Q13316); test: SPR, DMP1 attached to the sensor, PHEX flowed over
T2 sequence (looked up): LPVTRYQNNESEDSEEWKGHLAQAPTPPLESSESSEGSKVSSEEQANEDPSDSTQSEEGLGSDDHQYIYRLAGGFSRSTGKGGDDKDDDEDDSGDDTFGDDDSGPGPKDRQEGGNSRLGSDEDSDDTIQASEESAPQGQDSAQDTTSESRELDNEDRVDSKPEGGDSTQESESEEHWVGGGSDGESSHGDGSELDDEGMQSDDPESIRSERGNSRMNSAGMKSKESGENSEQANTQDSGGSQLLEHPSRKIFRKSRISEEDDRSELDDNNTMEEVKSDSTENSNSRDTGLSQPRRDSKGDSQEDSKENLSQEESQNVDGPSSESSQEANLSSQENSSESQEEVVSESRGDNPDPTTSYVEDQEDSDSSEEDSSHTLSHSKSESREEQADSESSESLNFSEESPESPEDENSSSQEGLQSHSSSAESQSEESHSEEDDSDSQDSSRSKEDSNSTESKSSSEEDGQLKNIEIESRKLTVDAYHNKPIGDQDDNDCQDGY

[4] = biological target: T2, human recombinant DMP1 (human); test: SPR, human recombinant PHEX and DMP1

Row | binding [1] | binding [2] | binding [3] | binding [4] | Substance
1 | binds | binds | – | – | PHEX (phosphate-regulating gene with homology to endopeptidase on the X chromosome), endogenous mouse protein (from UniProt P70669 1-749) (enzyme)
2 | – | – | binds | binds | soluble human recombinant PHEX (from UniProt P78562 46-749) (enzyme)
